Experimental data published in patent publication US20190161555A1.

How the values were obtained:
[1] = biological target: cynomolgus 5T4 (Macaca mulatta (cynomolgus)); test: flow cytometry on CHO cells transfected with cynomolgus 5T4, each curve normalised to its own maximum
[2] = biological target: cynomolgus 5T4 (Macaca mulatta (cynomolgus)); test: flow cytometry, CHO cells transfected with cynomolgus 5T4

Row | Binder | binding [1] | binding [2]
1 | 1206/1207 (antibody, V domains shown) VH: EVQLLESGGGLVQPGGSLRLSCAASGFTFSGSSMSWVRQAPGKGLEWVSSIYYSGSGTYYADSVKGRFTISRDNSKNTLYLQMNSLRAEDTAVYYCARYGRNVHPYNLDYWGQGTLVTVSS VL: DIQMTQSPSSLSASVGDRVTITCRASQSISSYLNWYQQKPGKAPKLLIYAASSLQSGVPSRFSGSGSGTDFTLTISSLQPEDFATYYCQQGYYYLPTFGQGTKLEIK | binds | binds
2 | 1212/1213 (antibody, IgG1, V domains shown) VH: EVQLLESGGGLVQPGGSLRLSCAASGFTFSSYAMSWVRQAPGKGLEWVSYISSYGGYTSYADSVKGRFTISRDNSKNTLYLQMNSLRAEDTAVYYCARYHSGVLDYWGQGTLVTVSS VL: DIQMTQSPSSLSASVGDRVTITCRASQSISSYLNWYQQKPGKAPKLLIYAASSLQSGVPSRFSGSGSGTDFTLTISSLQPEDFATYYCQQYYYHYLLTFGQGTKLEIK | binds | binds

No constants are given. Whether binding was seen depends on the method and setting. Binding can be weak; no strength is given.
